Measurements from article doi:10.1101/754457.
Read-outs that look alike come from different tables or passages of the source. Results are given in words; binding and its absence hold for the method and conditions named. For some of these results: In cells and extracts the contact can be indirect. Some entries that bind do so weakly or less than the wild type. For some of these results: Tags and fused reporters may be left off the sequences shown. One block for each binder: values may come before it.

Key:
[1] = biological target: T1, 6xHis-TEV-Mto1[bonsai] (Mto1 residues 131-549) (S. pombe) (UniProt O94488); assay: cross-linking
T1 sequence: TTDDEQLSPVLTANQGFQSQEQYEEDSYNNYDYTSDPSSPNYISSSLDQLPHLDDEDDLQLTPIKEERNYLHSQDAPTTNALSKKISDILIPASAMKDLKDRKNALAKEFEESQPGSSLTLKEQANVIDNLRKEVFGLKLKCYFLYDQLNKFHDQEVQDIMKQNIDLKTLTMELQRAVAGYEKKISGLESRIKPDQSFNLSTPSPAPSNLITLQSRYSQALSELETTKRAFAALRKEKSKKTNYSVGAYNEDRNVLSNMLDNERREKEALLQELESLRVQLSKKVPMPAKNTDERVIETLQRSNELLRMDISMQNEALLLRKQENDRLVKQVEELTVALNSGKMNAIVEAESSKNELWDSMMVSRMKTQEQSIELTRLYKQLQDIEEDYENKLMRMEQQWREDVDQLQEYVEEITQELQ

[2] = biological target: T1, 6xHis-TEV-Mto1[bonsai] (Mto1 residues 131-549) (S. pombe); assay: pull-down
[3] = biological target: Mto2 Near-N-terminal Domain (NND; Mto2 residues 78-153) (S. pombe) (UniProt Q9USP7); assay: SEC
[4] = biological target: T2, GST-6xHis-TEV-Mto1[bonsai] (S. pombe) (UniProt O94488); assay: pull-down
T2 sequence: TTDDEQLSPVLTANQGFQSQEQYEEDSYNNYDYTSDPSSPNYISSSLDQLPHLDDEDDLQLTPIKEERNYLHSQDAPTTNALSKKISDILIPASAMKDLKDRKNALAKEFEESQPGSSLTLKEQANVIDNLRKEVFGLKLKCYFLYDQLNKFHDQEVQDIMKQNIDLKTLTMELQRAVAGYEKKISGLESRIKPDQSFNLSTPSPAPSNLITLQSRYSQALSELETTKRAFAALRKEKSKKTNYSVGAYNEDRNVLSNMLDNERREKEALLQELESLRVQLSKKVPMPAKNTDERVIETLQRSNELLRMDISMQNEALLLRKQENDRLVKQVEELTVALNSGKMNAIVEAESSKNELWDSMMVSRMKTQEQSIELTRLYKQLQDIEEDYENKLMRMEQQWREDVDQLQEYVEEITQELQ

[5] = biological target: T3, Mto1[bonsai]-GFP (S. pombe) (UniProt O94488); assay: co-IP
T3 sequence: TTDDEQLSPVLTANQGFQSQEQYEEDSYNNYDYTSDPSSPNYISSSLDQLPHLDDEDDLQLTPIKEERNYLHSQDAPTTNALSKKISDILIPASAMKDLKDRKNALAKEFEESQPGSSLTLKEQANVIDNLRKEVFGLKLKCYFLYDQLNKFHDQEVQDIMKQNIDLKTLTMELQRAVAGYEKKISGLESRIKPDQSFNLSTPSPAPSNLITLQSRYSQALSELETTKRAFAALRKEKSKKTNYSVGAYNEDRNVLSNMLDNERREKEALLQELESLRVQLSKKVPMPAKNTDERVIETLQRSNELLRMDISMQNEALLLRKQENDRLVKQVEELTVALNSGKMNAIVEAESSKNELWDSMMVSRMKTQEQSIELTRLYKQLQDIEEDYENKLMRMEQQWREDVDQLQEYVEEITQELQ

[6] = biological target: T3, Mto1[bonsai]-GFP (S. pombe); assay: co-IP; remark: listed apart in the source

B2: Mto2 Near-N-terminal Domain (NND; Mto2 residues 78-153) (domain or fragment, UniProt Q9USP7 78-153)
chain: PLYSPSWPSLADANVNSMKSNNAIQEHKAAKFVSEKSLEKVSTADNNLVLQELENLRERLNQVELQLSERPSSYLG
binding [3]: binds weakly

B3: Mto2[44-397] (domain or fragment, UniProt Q9USP7 44-397)
chain: GMRSASLMTEPLEDSMYSDNNYLDNGVSFTKDENPLYSPSWPSLADANVNSMKSNNAIQEHKAAKFVSEKSLEKVSTADNNLVLQELENLRERLNQVELQLSERPSSYLGYHNNLSPYRSPNSYPSLLPSTHSPHSPAPLSTMQTALMRLRTYHPSPIILKPVEQAVNHAITLVNTSPSSVVDALCRSLAELCLGLVQEAIDASILSQQESSNSLDLVRHTPPLNYTSSVDSSPQRMASDSYGRPSLHLNDPFPSVDLQSNELSHHNVRTTLFSDDSRFHSKIHTHSTPPSQMYSAASHFRYRSDPSTRHVSNSTNKSSLHPSPTSLRVAHPIIPQRASPASQSFPSLQDTPSP
binding [4]: binds

B4: 6xHis-tagged Mto2 (protein, UniProt Q9USP7 1-397)
chain: MSEHNYQSDREVAEDPFLNYEASANQLSSNSRESTPRGSPWRAGMRSASLMTEPLEDSMYSDNNYLDNGVSFTKDENPLYSPSWPSLADANVNSMKSNNAIQEHKAAKFVSEKSLEKVSTADNNLVLQELENLRERLNQVELQLSERPSSYLGYHNNLSPYRSPNSYPSLLPSTHSPHSPAPLSTMQTALMRLRTYHPSPIILKPVEQAVNHAITLVNTSPSSVVDALCRSLAELCLGLVQEAIDASILSQQESSNSLDLVRHTPPLNYTSSVDSSPQRMASDSYGRPSLHLNDPFPSVDLQSNELSHHNVRTTLFSDDSRFHSKIHTHSTPPSQMYSAASHFRYRSDPSTRHVSNSTNKSSLHPSPTSLRVAHPIIPQRASPASQSFPSLQDTPSP
binding [4]: binds

B5: Mto2[1-319] (domain or fragment, UniProt Q9USP7 1-319)
chain: MSEHNYQSDREVAEDPFLNYEASANQLSSNSRESTPRGSPWRAGMRSASLMTEPLEDSMYSDNNYLDNGVSFTKDENPLYSPSWPSLADANVNSMKSNNAIQEHKAAKFVSEKSLEKVSTADNNLVLQELENLRERLNQVELQLSERPSSYLGYHNNLSPYRSPNSYPSLLPSTHSPHSPAPLSTMQTALMRLRTYHPSPIILKPVEQAVNHAITLVNTSPSSVVDALCRSLAELCLGLVQEAIDASILSQQESSNSLDLVRHTPPLNYTSSVDSSPQRMASDSYGRPSLHLNDPFPSVDLQSNELSHHNVRTTLFSDD
binding [4]: binds weakly

B6: Mto2[1-350] (domain or fragment, UniProt Q9USP7 1-350)
chain: MSEHNYQSDREVAEDPFLNYEASANQLSSNSRESTPRGSPWRAGMRSASLMTEPLEDSMYSDNNYLDNGVSFTKDENPLYSPSWPSLADANVNSMKSNNAIQEHKAAKFVSEKSLEKVSTADNNLVLQELENLRERLNQVELQLSERPSSYLGYHNNLSPYRSPNSYPSLLPSTHSPHSPAPLSTMQTALMRLRTYHPSPIILKPVEQAVNHAITLVNTSPSSVVDALCRSLAELCLGLVQEAIDASILSQQESSNSLDLVRHTPPLNYTSSVDSSPQRMASDSYGRPSLHLNDPFPSVDLQSNELSHHNVRTTLFSDDSRFHSKIHTHSTPPSQMYSAASHFRYRSDPS
binding [4]: binds

Further lines, results first:

binding [1]: binds | binding [2]: binds
B1: Mto2, untagged, co-expressed with 6xHis-Mto1[bonsai] (protein, UniProt Q9USP7 1-397)
chain: MSEHNYQSDREVAEDPFLNYEASANQLSSNSRESTPRGSPWRAGMRSASLMTEPLEDSMYSDNNYLDNGVSFTKDENPLYSPSWPSLADANVNSMKSNNAIQEHKAAKFVSEKSLEKVSTADNNLVLQELENLRERLNQVELQLSERPSSYLGYHNNLSPYRSPNSYPSLLPSTHSPHSPAPLSTMQTALMRLRTYHPSPIILKPVEQAVNHAITLVNTSPSSVVDALCRSLAELCLGLVQEAIDASILSQQESSNSLDLVRHTPPLNYTSSVDSSPQRMASDSYGRPSLHLNDPFPSVDLQSNELSHHNVRTTLFSDDSRFHSKIHTHSTPPSQMYSAASHFRYRSDPSTRHVSNSTNKSSLHPSPTSLRVAHPIIPQRASPASQSFPSLQDTPSP

binding [5]: binds
B7: Mto2, wild type, in S. pombe (mto2+) (protein, UniProt Q9USP7 1-397)
chain: MSEHNYQSDREVAEDPFLNYEASANQLSSNSRESTPRGSPWRAGMRSASLMTEPLEDSMYSDNNYLDNGVSFTKDENPLYSPSWPSLADANVNSMKSNNAIQEHKAAKFVSEKSLEKVSTADNNLVLQELENLRERLNQVELQLSERPSSYLGYHNNLSPYRSPNSYPSLLPSTHSPHSPAPLSTMQTALMRLRTYHPSPIILKPVEQAVNHAITLVNTSPSSVVDALCRSLAELCLGLVQEAIDASILSQQESSNSLDLVRHTPPLNYTSSVDSSPQRMASDSYGRPSLHLNDPFPSVDLQSNELSHHNVRTTLFSDDSRFHSKIHTHSTPPSQMYSAASHFRYRSDPSTRHVSNSTNKSSLHPSPTSLRVAHPIIPQRASPASQSFPSLQDTPSP

binding [5]: binds | binding [6]: binds weakly
B8: γ-tubulin (Gtb1) (protein, UniProt P25295 1-446)
chain: MGREIITLQAGQCGNQIGSQFWQQLCLEHGIGPDGTLESFATEGVDRKDVFFYQSDDTRYIPRAILIDLEPRVVNNILSDTYGSLYNPENILITKNGGGAGNNWANGYSHAERIFEDIMDMIDREADGSDSLEGFSLLHSIAGGTGSGLGSFLLERLNDRYPKKIIQTYSVFPNSQSVSDVVVQPYNSLLALKRLTLNADSVVVLDNAALAHIAADRLHTQNPTFHQQNQLVSTVMSASTTTLRYPGYMNNDLVSIIASLIPSPRCHFLLTSYTPFTNQQVEEAKAIRKTTVLDVMRRLLLPKNQMVSVNPSKKSCFISILDIIQGEADPADVHKSLLRIRERRYASFIPWGPASIQVALSKKSPYIKTNHRVSGLMLANHTSIASLFKRTLDQYDRLRKRNAFLEQYKKEAIFEDDLNEFDSSRDVVADLINEYEACEDPNYLSL
